Source: article doi:10.1101/2020.01.09.899880

Amino acid sequences for entries named in this document (tags omitted). A change or cut given only in a name is not applied to a line headed by its entry.
UniProt P04406: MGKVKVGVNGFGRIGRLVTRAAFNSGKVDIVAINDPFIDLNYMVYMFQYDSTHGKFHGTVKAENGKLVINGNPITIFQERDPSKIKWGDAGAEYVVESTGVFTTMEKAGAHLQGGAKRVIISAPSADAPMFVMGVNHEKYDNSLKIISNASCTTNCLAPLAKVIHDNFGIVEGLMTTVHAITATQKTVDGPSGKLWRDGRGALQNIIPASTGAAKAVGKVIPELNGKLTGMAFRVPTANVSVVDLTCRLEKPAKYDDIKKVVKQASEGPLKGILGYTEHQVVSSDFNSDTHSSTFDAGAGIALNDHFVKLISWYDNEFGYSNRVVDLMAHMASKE
UniProt P02788: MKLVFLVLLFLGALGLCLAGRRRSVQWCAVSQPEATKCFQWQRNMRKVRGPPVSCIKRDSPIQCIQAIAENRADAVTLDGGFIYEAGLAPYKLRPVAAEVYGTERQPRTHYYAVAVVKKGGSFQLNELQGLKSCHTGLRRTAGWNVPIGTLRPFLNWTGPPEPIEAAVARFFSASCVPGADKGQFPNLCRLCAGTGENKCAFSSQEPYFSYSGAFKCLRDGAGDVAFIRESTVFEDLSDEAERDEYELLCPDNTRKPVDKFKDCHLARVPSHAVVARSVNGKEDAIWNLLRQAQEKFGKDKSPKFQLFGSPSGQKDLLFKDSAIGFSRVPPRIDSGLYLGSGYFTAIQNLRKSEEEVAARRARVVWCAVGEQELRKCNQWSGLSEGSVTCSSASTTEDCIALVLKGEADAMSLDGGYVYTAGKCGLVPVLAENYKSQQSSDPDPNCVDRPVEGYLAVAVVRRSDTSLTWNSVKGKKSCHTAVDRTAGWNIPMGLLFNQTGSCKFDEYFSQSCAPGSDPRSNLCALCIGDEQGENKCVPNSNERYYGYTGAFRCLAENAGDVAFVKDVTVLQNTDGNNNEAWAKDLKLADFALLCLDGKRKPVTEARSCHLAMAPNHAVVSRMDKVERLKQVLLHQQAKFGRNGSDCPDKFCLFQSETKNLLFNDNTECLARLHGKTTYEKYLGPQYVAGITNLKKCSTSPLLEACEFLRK

Assays:
[1] = target: GAPDH-cMyc fusion protein (human) (UniProt P04406); test: co-IP
[2] = target: GAPDH-cMyc fusion protein (human) (UniProt P04406); test: co-IP; remark: listed apart in the source

Substance: lactoferrin-GFP protein (lactoferrin N domain fused to GFP) (from UniProt P02788) (domain or fragment)
- binding [1]: binds
- binding [2]: binds

Like-named read-outs stand apart in the source and are kept apart here. Results are given in words; binding and its absence hold for the method and conditions named. In cells and extracts the contact can be indirect. Binding can be weak; no strength is given.
